Laboratory results: patent publication US20200392225A1
These are yes or no findings as the source states them, for the method shown. Some results given as binding are weak or reduced against the parent protein; the word gives no strength.

By UniProt entry, the sequences of proteins in these tests, tags left out. Residues count along the entry.
UniProt P02769, residues 25-607: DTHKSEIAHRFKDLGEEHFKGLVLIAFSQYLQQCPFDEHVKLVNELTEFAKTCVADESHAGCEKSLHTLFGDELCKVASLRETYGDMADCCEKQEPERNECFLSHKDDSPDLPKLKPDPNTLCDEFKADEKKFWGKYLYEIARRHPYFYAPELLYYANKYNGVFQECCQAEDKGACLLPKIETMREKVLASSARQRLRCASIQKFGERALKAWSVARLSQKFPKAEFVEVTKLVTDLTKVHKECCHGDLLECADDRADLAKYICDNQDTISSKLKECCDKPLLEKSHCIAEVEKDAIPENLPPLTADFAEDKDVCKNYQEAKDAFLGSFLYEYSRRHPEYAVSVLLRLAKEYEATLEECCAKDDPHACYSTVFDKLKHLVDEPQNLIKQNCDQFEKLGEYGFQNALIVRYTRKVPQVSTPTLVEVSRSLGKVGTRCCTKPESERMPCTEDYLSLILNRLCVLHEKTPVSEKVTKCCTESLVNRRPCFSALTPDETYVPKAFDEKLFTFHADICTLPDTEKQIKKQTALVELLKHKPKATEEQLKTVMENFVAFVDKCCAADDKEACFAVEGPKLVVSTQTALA

T1: human NPR3 (counter target) (human) (UniProt P17342)
T1 sequence (looked up): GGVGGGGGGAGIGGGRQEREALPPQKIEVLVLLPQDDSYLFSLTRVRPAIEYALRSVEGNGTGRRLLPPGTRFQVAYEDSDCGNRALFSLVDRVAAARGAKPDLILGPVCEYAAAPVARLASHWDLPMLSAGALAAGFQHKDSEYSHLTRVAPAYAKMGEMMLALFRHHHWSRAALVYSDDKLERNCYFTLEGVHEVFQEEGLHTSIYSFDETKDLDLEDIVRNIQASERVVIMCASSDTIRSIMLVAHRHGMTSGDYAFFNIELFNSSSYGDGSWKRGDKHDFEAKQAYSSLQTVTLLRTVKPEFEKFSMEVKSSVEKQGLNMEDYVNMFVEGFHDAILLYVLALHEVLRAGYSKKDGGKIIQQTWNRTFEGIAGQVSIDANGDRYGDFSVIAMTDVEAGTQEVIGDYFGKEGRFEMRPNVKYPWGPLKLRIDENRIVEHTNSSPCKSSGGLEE


What was measured:
BSA (Bos taurus) [1] = target: BSA (Bos taurus) (UniProt P02769); test: ELISA, IgG titrated on BSA (irrelevant antigen)
BSA (Bos taurus) [2] = target: BSA (Bos taurus) (UniProt P02769); test: ELISA, IgG titrated on BSA (irrelevant antigen) [cont.]
[3] = target: T1, human NPR3 (counter target) (human); test: FabCys affinity determination on hNPR3

Binder | binding (BSA (Bos taurus) [1]) | binding (BSA (Bos taurus) [2]) | other results
XX03 IgG (antibody, V domains shown) VH: EVQLLESGGGLVQPGGSLRLSCAASGFTFSSYWMNWVRQAPGKGLEWVSVIESKGNYIFYADSVKGRFTISRDNSKNTLYLQMNSLRAEDTAVYYCARDRYSMIYSYGAGAFDYWGQGTLVTVSS VL: DIQMTQSPSSLSASVGDRVTITCRASQGISSYLAWYQQKPGKAPKLLIYTASTLQSGVPSRFSGSGSGTDFTLTISSLQPEDFATYYCMQSYEKPRTFGQGTKVEIKR | no binding (tested: 200 nM) | – | –
XX07 IgG (antibody, V domains shown) VH: QVQLLESGGGLVQPGGSLRLSCAASGFTFSSYWMNWVRQAPGKGLEWVSAISSDGSYTYYADSVKGRFTISRDNSKNTLYLQMNSLRAEDTAVYYCARDRYSMIYSYGAGAFDYWGQGTLVTVSS VL: DIQMTQSPSSLSASVGDRVTITCRASQGISSYLAWYQQKPGKAPKLLIYTASTLQSGVPSRFSGSGSGTDFTLTISSLQPEDFATYYCQQIWTVPRTFGQGTKVEIKR | – | no binding (tested: 200 nM) | –
XX12 IgG (antibody, V domains shown) VH: QVQLLESGGGLVQPGGSLRLSCAASGFTFSSYWMNWVRQAPGKGLEWVSAISSDGSYTYYADSVKGRFTISRDNSKNTLYLQMNSLRAEDTAVYYCARDRYSMIYSYGAGAFDYWGQGTLVTVSS VL: DIQMTQSPSSLSASVGDRVTITCRASQGISSYLAWYQQKPGKAPKLLIYTASTLQSGVPSRFSGSGSGTDFTLTISSLQPEDFATYYCQQIWMAPRTFGQGTKVEIKR | – | no binding (tested: 200 nM) | –
XX06 IgG (antibody, V domains shown) VH: QVQLLESGGGLVQPGGSLRLSCAASGFTFSSYWMNWVRQAPGKGLEWVSAISSDGSYTYYADSVKGRFTISRDNSKNTLYLQMNSLRAEDTAVYYCARDRYSMIYSYGAGAFDYWGQGTLVTVSS VL: DIQMTQSPSSLSASVGDRVTITCRASQGISSYLAWYQQKPGKAPKLLIYTASTLQSGVPSRFSGSGSGTDFTLTISSLQPEDFATYYCQQTWRKPRTFGQGTKVEIKR | no binding (tested: 200 nM) | – | –
WW06 FabCys (Fab, V domains shown) VH: QVQLVQSGAEVKKPGESLKISCKGSGYSFTSYWIAWVRQMPGKGLEWMGRIDPDNSYTRYSPSFQGQVTISADKSISTAYLQWSSLKASDTAMYYCARWLSPGYALGEQPAGMDHWGQGTLVTVSS VL: DIVLTQPPSVSGAPGQRVTISCTGSSSNIGAGYAVHWYQQLPGTAPKLLIYSNNKRPSGVPDRFSGSKSGTSASLAITGLQAEDEADYYCQSYDLQKSSRVFGGGTKLTVL | – | – | binding [3]: binds
XX08 (antibody, human IgG1, kappa, L234A L235A, V domains shown) VH: EVQLLESGGGLVQPGGSLRLSCAASGFTFNTHYIHWVRQAPGKGLEWVSSIGGQGGMTLYADSVKGRFTISRDNSKNTLYLQMNSLRAEDTAVYYCARERGYVYYHMFDPWGQGTLVTVSS VL: DIVLTQSPATLSLSPGERATLSCRASQSITRNYLAWYQQKPGQAPRLLIYGASSRATGIPARFSGSGSGTDFTLTISSLEPEDFAVYYCQQHSMYPRTFGQGTKVEIKR | – | no binding (tested: 200 nM) | –
WW01 FabCys (Fab, V domains shown) VH: QVQLLESGGGLVQPGGSLRLSCAASGFTFNTHYIHWVRQAPGKGLEWVSSISGSGSNTYYADSVKGRFTISRDNSKNTLYLQMNSLRAEDTAVYYCARERGYVYYHMFDPWGQGTLVTVSS VL: DIVLTQSPATLSLSPGERATLSCRASQSITRNYLAWYQQKPGQAPRLLIYGASSRATGIPARFSGSGSGTDFTLTISSLEPEDFAVYYCQQHSMYPRTFGQGTKVEIK | – | – | binding [3]: binds

Further lines, with some results ahead:

binding (BSA (Bos taurus) [1]) | binding (BSA (Bos taurus) [2]) | Binder | other results
no binding (tested: 1000 nM) | – | YY03 IgG (YY03_LALA) (antibody, V domains shown) VH: EVQLLESGGGLVQPGGSLRLSCAASGFTFSSYAISWVRQAPGKGLEWVSAISGSGGSTYYAESVKGRFTISRDNSKNTLYLQMNSLRAEDTAVYYCARESGYVYYLKFDYWGQGTLVTVSS VL: DIQMTQSPSSLSASVGDRVTITCRASQSISSYLNWYQQKPGKAPKLLIYAASSLQSGVPSRFSGSGSGTDFTLTISSLQPEDFATYYCQQHVRVPITFGQGTKVEIKR | –
no binding (tested: 1000 nM) | – | YY01 IgG (YY01_LALA) (antibody, V domains shown) VH: EVQLVESGGGLVQPGGSLRLSCAASGFTFSSYWISWVRQAPGKGLEWVANIKQSGSETYYVESVKGRFTISRDNAKNSLYLQMNSLRAEDTAVYYCARSLRRRSTEHAGFDVWGQGTLVTVSS VL: DIQMTQSPSSLSASVGDRVTITCRASQGISNYLAWYQQKPGKVPKLLIYAASTLQSGVPSRFSGSGSGTDFTLTISSLQPEDVATYYCQQADKFPYTFGQGTKVEIKR | –
no binding (tested: 1000 nM) | – | YY02 IgG (YY02_LALA) (antibody, V domains shown) VH: EVQLVESGGGLVKPGGSLRLSCAASGFTFSSYSMNWVRQAPGKGLEWVSSISSSSSYIYYADSVKGRFTISRDNAKNSLYLQMNSLRAEDTAVYYCARSGYRGVYGFDYWGQGTLVTVSS VL: DIQMTQSPSSVSASVGDRVTITCRASQGISSWLAWYQQKPGKAPKLLIYAASSLQSGVPSRFSGSGSGTDFTLTISSLQPEDFATYYCQQYYHSPLTFGQGTKVEIKR | –
– | no binding (tested: 1000 nM) | YY04 IgG (YY04_LALA) (antibody, V domains shown) VH: EVQLVESGGGLVKPGGSLRLSCAASGFTFSNYWISWVRQAPGKGLEWVGRIKSKTYGGTTDYAEPVKGRFTISRDDSKNTLYLQMNSLKTEDTAVYYCAREKYSIRARGHGDYGFDVWGQGTLVTVSS VL: DIQMTQSPSSLSASVGDRVTITCRASQGISNYLAWYQQKPGKVPKLLIYAASTLQSGVPSRFSGSGSGTDFTLTISSLQPEDVATYYCQQGYHAPFTFGQGTKVEIKR | –
– | no binding (tested: 1000 nM) | YY06 IgG (YY06_LALA) (antibody, V domains shown) VH: EVQLLESGGGLVQPGGSLRLSCAASGFTFSSYAISWVRQAPGKGLEWVSAISGSGGSTYYAESVKGRFTISRDNSKNTLYLQMNSLRAEDTAVYYCARPYLGDRRSYGFDHWGQGTLVTVSS VL: QSALTQPASVSGSPGQSITISCTGTSSDVGSYNLVSWYQQHPGKAPKLMIYEGSKRPSGVSNRFSGSKSGNTASLTISGLQAEDEADYYCSSYGFHIVVVVFGGGTKLTVLG | –
– | no binding (tested: 1000 nM) | YY05 IgG (YY05_LALA) (antibody, V domains shown) VH: EVQLVQSGAEVKKPGESLKISCKGSGYSFTSYWISWVRQMPGKGLEWMGIIYPGTSYTRYSPSFQGQVTISADKSISTAYLQWSSLKASDTAMYYCARGAVAGQLGFDHWGQGTLVTVSS VL: QSVLTQPPSVSGAPGQRVTISCTGSSSNIGAGYDVHWYQQLPGTAPKLLIYGNSNRPSGVPDRFSGSKSGTSASLAITGLQAEDEADYYCQSYYTSSHGPVFGGGTKLTVLG | –
– | no binding (tested: 1000 nM) | YY07 IgG (YY07_LALA) (antibody, V domains shown) VH: EVQLVQSGAEVKKPGESLKISCKGSGYSFTSYWISWVRQMPGKGLEWMGIIYPGTSYTRYSPSFQGQVTISADKSISTAYLQWSSLKASDTAMYYCARGSLPGLLGFDHWGQGTLVTVSS VL: QSVLTQPPSVSGAPGQRVTISCTGSSSNIGAGYDVHWYQQLPGTAPKLLIYGNSNRPNGVPDRFSGSKSGTSASLAITGLQAEDEADYYCQSYDSPTSSSVFGGGTKLTVLG | –
